Data published in US20160311878A1.
No constants are given. Whether binding was seen depends on the method and setting. Some binding calls cover weakened binding; strength is not graded here. Tags and fused reporters may be left off the sequences shown. Values belong to the binder of their own block, whether it stands above or below them.

The chains behind the UniProt entries cited, without tags or fusion partners. Residues count along the entry.
UniProt Q00987, residues 1-125: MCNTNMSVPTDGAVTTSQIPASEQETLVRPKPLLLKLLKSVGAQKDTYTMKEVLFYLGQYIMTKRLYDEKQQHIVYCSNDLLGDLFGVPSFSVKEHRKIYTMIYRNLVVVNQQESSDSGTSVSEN

Experiments:
[1] = molecular target: HDM2 N-terminal domain (NTD; the region from 1st to 125th amino acids of NP_002383.2) (human) (UniProt Q00987); assay: ELISA; HDM2 NTD coated on plate, GST fusion at 0-5.5 uM, anti-GST-HRP detection (FIG. 5)
[2] = molecular target: T1, HDMX N-terminal domain (NTD; the region from 1st to 132nd amino acids of NP_001191100.1) (human) (UniProt O15151); assay: ELISA; HDMX NTD coated on plate, GST fusion at 0-5.5 uM, anti-GST-HRP detection (FIG. 3)
T1 sequence (looked up): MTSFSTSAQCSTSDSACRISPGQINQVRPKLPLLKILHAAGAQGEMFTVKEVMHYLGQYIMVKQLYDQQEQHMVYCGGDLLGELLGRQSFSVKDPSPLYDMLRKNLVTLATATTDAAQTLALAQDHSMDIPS

binding [1]: binds
binding [2]: binds
B1: GST-M25 (modified three-helix bundle protein M25, an a3D variant, fused to GST) (designed binder, not shown: a dimerising Fc or GST; large carriers; small tags and cut ends)
chain: MGSWFEFAWRLLEIKTRLQALGGSEAELAAFEKEIAAFESELQAYKGKGNPEVEALRFEAYWIRLELQAYRHN

binding [1]: binds
binding [2]: binds
B2: GST-M11 (modified three-helix bundle protein M11, an a3D variant, fused to GST) (designed binder, not shown: a dimerising Fc or GST; large carriers; small tags and cut ends)
chain: MGSWAEFSQRLFAIYWRLLALGGSEAELAAFEKEIAAFESELQAYKGKGNPEVEALRKEAAAIRDELQAYRHN
